# Results published in paper doi:10.1101/2023.08.07.552284.
# Results are given in words; binding and its absence hold for the method and conditions named. For some of these results: A result given as binding can be weak or reduced; the word gives no strength. Sequences can lack the tags named with a protein. For some of these results: In cells and extracts the contact can be indirect.
# T1: DPA, yeast two-hybrid fusion (Arabidopsis thaliana) (UniProt Q9FNY3)
# T1 sequence: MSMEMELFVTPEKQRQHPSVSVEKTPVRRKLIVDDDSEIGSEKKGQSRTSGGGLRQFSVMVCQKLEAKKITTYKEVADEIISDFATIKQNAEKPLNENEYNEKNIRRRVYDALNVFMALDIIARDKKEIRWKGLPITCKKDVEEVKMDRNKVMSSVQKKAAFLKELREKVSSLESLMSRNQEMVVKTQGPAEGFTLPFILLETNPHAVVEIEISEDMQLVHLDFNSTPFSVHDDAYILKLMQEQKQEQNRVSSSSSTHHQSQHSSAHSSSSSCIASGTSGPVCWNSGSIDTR
# T2: MYB3R3, yeast two-hybrid fusion (Arabidopsis thaliana) (UniProt Q8H1P9)
# T2 sequence: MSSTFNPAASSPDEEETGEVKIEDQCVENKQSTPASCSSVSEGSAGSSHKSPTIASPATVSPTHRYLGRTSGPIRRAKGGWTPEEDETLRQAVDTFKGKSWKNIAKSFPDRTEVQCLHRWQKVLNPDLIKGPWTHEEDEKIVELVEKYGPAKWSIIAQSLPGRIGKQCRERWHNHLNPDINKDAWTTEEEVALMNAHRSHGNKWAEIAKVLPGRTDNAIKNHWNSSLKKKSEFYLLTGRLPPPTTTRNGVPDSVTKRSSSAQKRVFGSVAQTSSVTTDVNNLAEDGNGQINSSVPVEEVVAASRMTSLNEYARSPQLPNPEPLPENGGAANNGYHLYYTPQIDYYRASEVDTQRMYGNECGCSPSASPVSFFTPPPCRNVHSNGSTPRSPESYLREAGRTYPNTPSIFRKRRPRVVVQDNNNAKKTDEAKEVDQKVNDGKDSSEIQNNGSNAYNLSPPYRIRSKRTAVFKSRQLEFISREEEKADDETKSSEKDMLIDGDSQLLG
# T3: MYB3R1, yeast two-hybrid fusion (Arabidopsis thaliana) (UniProt Q9S7G7)
# T3 sequence: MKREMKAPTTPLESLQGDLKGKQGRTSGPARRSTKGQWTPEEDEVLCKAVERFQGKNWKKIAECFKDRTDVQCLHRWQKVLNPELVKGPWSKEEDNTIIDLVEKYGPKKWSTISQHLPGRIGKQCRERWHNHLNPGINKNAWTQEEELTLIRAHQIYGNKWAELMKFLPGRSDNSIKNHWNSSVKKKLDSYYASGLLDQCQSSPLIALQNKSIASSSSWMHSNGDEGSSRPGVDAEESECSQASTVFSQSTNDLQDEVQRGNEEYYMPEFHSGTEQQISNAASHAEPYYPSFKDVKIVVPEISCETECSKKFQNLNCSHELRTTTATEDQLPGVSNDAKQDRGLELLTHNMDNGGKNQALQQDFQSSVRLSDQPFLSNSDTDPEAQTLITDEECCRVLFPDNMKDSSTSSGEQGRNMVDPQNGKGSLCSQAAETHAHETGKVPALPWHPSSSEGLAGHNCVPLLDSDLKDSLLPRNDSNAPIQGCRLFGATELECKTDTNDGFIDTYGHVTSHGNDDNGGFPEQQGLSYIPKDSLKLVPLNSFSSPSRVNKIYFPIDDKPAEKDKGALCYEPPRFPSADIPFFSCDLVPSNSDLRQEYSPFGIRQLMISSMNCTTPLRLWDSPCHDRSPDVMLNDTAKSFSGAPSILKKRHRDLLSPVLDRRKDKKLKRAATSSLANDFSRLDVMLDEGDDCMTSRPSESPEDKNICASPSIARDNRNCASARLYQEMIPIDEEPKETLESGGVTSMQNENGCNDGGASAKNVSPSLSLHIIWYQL
# T4: NAC050, yeast two-hybrid fusion (Arabidopsis thaliana) (UniProt Q9SQX9)
# T4 sequence: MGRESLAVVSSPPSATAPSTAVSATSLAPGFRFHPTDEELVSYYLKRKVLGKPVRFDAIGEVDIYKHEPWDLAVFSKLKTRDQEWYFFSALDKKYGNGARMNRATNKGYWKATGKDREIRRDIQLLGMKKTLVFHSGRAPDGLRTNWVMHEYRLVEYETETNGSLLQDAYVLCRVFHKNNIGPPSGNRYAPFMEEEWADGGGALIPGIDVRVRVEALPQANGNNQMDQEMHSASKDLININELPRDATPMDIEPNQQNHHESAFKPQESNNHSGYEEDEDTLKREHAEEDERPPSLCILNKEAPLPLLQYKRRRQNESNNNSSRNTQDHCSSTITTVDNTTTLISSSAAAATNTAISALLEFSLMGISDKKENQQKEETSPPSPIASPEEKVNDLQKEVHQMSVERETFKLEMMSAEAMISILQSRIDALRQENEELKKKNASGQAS
# T5: NAC052, yeast two-hybrid fusion (Arabidopsis thaliana) (UniProt Q9SQY0)
# T5 sequence: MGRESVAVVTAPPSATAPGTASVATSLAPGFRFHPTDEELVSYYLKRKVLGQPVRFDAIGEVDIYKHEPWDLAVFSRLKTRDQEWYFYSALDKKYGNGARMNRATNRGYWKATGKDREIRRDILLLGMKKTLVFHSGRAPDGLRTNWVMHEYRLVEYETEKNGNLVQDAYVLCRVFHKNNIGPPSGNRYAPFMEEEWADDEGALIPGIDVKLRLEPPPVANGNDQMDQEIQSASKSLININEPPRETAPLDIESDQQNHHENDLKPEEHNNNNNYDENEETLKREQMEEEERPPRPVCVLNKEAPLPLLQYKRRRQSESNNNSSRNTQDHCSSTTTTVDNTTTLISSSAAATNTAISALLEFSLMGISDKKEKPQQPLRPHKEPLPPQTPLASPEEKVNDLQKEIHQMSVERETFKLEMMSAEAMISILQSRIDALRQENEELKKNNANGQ
# T6: nYFP-NAC050, BiFC fusion (Arabidopsis thaliana) (UniProt Q9SQX9)
# T6 sequence: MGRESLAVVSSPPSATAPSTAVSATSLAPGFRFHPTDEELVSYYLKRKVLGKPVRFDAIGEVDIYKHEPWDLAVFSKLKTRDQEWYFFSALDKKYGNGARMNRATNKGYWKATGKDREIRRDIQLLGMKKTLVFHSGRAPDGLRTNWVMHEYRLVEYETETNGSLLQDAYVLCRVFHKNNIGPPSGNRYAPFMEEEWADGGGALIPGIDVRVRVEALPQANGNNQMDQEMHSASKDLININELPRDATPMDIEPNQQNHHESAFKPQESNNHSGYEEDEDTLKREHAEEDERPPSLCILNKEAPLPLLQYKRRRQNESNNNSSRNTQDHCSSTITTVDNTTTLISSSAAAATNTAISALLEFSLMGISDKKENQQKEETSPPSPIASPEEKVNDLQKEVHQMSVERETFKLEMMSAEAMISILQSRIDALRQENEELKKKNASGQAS
# T7: nYFP-NAC052, BiFC fusion (Arabidopsis thaliana) (UniProt Q9SQY0)
# T7 sequence: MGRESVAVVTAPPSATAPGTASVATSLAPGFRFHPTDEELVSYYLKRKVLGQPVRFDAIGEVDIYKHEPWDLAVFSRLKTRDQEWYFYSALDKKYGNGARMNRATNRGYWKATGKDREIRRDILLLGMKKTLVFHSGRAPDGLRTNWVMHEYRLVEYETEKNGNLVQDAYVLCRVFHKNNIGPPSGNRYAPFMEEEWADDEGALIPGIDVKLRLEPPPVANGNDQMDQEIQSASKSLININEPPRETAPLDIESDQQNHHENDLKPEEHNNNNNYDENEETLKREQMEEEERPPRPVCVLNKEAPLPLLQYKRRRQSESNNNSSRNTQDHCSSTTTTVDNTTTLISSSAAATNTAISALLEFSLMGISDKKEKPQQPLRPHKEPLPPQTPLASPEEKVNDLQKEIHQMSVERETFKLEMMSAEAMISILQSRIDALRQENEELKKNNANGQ
# Tests used:
# [1] = target: T1, DPA, yeast two-hybrid fusion (Arabidopsis thaliana); assay: two-hybrid
# [2] = target: T2, MYB3R3, yeast two-hybrid fusion (Arabidopsis thaliana); assay: two-hybrid
# [3] = target: T3, MYB3R1, yeast two-hybrid fusion (Arabidopsis thaliana); assay: two-hybrid
# [4] = target: T4, NAC050, yeast two-hybrid fusion (Arabidopsis thaliana); assay: two-hybrid
# [5] = target: T5, NAC052, yeast two-hybrid fusion (Arabidopsis thaliana); assay: two-hybrid
# [6] = target: T6, nYFP-NAC050, BiFC fusion (Arabidopsis thaliana); assay: split reporter
# [7] = target: T7, nYFP-NAC052, BiFC fusion (Arabidopsis thaliana); assay: split reporter
# [8] = target: LIN37B, yeast two-hybrid fusion (Arabidopsis thaliana); assay: two-hybrid
binding [2],binding [6],binding [7],Molecule,other results
binds,–,–,"BTE1, yeast two-hybrid fusion (Arabidopsis thaliana)",binding [1]: binds
binds,–,–,"BTL1, yeast two-hybrid fusion (Arabidopsis thaliana)",binding [3]: binds
binds,–,–,"FLAC, yeast two-hybrid fusion (Arabidopsis thaliana)",binding [3]: no binding; binding [4]: no binding; binding [5]: no binding
binds,–,–,"FLIC, yeast two-hybrid fusion (AD-FLIC) (from UniProt F4KFG7)",–
–,binds,binds,"LIN37B, BiFC fusion (Arabidopsis thaliana)",–
–,no binding,binds,"cYFP-FLAC, BiFC fusion (Arabidopsis thaliana)",–
–,binds,no binding,"cYFP-LIN37A, BiFC fusion (Arabidopsis thaliana)",–
–,–,–,"NAC050, yeast two-hybrid fusion (protein, UniProt Q9SQX9 1-447) MGRESLAVVSSPPSATAPSTAVSATSLAPGFRFHPTDEELVSYYLKRKVLGKPVRFDAIGEVDIYKHEPWDLAVFSKLKTRDQEWYFFSALDKKYGNGARMNRATNKGYWKATGKDREIRRDIQLLGMKKTLVFHSGRAPDGLRTNWVMHEYRLVEYETETNGSLLQDAYVLCRVFHKNNIGPPSGNRYAPFMEEEWADGGGALIPGIDVRVRVEALPQANGNNQMDQEMHSASKDLININELPRDATPMDIEPNQQNHHESAFKPQESNNHSGYEEDEDTLKREHAEEDERPPSLCILNKEAPLPLLQYKRRRQNESNNNSSRNTQDHCSSTITTVDNTTTLISSSAAAATNTAISALLEFSLMGISDKKENQQKEETSPPSPIASPEEKVNDLQKEVHQMSVERETFKLEMMSAEAMISILQSRIDALRQENEELKKKNASGQAS",binding [8]: binds
